Experiment [1] has as its target T1, FLAG-tagged full-length Treacle (mouse Tcof1) (mouse) (UniProt O08784).
T1 sequence: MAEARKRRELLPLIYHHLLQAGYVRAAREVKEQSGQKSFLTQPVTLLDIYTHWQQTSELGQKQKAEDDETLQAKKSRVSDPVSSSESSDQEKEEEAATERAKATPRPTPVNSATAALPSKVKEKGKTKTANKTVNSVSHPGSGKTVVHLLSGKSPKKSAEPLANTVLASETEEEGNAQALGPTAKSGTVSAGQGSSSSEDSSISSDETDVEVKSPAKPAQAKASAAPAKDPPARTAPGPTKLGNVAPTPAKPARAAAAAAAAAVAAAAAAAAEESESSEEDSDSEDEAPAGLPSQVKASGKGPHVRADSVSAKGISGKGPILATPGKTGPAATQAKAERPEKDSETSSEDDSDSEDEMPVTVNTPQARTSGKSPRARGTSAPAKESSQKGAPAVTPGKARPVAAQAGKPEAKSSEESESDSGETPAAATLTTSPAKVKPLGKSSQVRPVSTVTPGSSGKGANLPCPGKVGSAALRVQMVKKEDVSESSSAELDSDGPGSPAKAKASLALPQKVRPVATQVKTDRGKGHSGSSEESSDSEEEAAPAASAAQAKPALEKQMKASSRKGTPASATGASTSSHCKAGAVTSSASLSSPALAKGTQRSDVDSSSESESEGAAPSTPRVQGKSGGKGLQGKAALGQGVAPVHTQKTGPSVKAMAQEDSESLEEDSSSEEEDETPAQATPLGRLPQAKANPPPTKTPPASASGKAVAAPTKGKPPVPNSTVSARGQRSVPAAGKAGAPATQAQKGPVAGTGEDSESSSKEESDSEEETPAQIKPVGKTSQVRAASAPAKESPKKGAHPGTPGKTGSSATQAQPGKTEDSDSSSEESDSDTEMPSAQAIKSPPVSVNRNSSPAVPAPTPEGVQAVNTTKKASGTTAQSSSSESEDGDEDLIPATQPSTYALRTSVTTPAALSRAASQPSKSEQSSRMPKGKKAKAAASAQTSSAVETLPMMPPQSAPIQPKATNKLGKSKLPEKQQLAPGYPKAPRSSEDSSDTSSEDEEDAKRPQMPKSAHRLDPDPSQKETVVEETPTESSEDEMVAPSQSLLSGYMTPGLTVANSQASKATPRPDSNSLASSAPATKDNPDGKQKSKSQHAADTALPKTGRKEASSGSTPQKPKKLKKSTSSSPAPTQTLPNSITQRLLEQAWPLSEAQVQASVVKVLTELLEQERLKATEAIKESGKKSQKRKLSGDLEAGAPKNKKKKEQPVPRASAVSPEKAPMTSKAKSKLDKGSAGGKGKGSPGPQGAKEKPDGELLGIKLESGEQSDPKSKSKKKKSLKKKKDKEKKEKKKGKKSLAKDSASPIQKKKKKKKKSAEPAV
In words: co-IP; HeLa cells transfected, synchronized by thymidine block, released 5 h, nocodazole (50 ng/ml) 14 h to obtain mitotic cells; lysis in 50 mM Tris-HCl pH 7.5, 150 mM NaCl, 1% NP-40, 5 mM EDTA; anti-FLAG agarose beads at 4°C overnight; elution with FLAG peptide; western blot with anti-HA, anti-PLK1 and anti-FLAG.

By UniProt entry, the sequences of proteins in these tests, tags left out.
UniProt Q07832: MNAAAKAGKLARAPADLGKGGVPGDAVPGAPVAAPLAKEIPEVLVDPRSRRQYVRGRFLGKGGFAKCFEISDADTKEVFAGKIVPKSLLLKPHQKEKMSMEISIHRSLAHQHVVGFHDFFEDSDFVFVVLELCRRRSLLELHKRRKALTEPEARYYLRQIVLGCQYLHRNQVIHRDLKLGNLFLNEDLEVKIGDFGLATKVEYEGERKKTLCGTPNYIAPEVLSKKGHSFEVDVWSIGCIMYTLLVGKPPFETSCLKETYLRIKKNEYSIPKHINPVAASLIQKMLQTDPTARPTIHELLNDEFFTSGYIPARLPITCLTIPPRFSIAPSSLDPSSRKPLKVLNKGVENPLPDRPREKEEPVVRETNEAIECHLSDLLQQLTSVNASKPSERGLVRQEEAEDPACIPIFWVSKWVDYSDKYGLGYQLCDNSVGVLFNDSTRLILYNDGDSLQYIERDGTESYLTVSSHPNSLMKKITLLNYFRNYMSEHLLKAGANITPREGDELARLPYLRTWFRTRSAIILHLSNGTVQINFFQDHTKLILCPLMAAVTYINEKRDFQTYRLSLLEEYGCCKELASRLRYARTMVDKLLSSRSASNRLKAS
UniProt P53350: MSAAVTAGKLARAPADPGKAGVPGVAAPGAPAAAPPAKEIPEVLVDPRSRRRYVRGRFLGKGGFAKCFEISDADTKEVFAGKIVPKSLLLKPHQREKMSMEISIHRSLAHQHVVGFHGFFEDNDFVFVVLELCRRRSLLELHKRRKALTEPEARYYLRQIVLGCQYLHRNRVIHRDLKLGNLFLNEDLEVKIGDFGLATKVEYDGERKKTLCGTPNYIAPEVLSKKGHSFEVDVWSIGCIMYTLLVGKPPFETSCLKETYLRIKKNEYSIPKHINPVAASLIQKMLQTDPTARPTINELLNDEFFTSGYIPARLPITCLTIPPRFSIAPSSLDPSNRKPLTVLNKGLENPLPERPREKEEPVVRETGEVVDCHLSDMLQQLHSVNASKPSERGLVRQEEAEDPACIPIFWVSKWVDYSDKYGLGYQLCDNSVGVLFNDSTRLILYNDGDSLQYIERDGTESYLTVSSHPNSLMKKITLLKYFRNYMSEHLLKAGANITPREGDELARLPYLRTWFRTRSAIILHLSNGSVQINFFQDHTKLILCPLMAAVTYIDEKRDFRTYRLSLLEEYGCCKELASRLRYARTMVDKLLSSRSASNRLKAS

Experiment [2] deals with T1, FLAG-tagged full-length Treacle (mouse Tcof1) (mouse). Nature of the experiment: co-IP; as the co-IP of FLAG-tagged Treacle and HA-tagged Plk1, but with cell lysate prepared from asynchronized cells.
Experiment [3] deals with T2, FLAG-tagged N-terminal part of Treacle (mouse Tcof1, amino acids 1-452) (mouse) (UniProt O08784).
T2 sequence: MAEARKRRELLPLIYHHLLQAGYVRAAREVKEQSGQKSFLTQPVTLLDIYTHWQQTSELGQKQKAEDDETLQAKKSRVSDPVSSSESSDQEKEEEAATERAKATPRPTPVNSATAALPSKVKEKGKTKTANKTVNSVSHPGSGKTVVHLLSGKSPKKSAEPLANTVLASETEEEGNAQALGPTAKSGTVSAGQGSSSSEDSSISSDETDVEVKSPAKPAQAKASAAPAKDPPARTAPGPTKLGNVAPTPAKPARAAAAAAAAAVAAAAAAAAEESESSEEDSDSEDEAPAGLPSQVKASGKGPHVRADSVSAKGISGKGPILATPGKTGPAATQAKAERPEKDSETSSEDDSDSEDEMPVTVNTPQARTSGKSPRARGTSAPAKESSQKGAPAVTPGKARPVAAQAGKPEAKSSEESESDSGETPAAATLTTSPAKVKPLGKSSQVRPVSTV
In words: co-IP; HeLa cells transfected, synchronized by thymidine block, released 5 h, nocodazole (50 ng/ml) 14 h to obtain mitotic cells; lysis in 50 mM Tris-HCl pH 7.5, 150 mM NaCl, 1% NP-40, 5 mM EDTA; anti-FLAG agarose beads at 4°C overnight; elution with FLAG peptide; western blot with anti-HA, anti-PLK1 and anti-FLAG.

No constants are given. Whether binding was seen depends on the method and setting. Binding seen in cells or lysates may run through a third protein. Some binding calls cover weakened binding; strength is not graded here. Sequences can lack the tags named with a protein.

Two substances from PMC3315461 can be followed below.

Regarding “HA-tagged full-length Plk1 (mouse) (from UniProt Q07832 1-603)”, the binding result was “binds” in experiment [1] and “no binding (condition: lysate from asynchronized cells)” in experiment [2].

Turning to “endogenous PLK1 of HeLa cells (from UniProt P53350 1-603)”, the binding entry in experiment [1] and in experiment [3] was “binds” throughout.
